# Test system: male Wistar rats
# Test: Experiment 4: roflumilast-mediated diarrhoea and mesentery histopathology in rats, with or without SC-560 or lumiracoxib
# Type: in vivo, rat
# [1] = NSAID 2 mg/kg at 0800 and 1700 co-administered with roflumilast 10 mg/kg at 1300, p.o. for four days
# [2] = affected animals out of animals examined, p.o. for four days, 95 hours after t0, roflumilast 10 mg/kg at 1300, SC-560 or lumiracoxib 2 mg/kg at 0800 and 1700
compound,measurement,setting,value
COc1ccc(-n2nc(C(F)(F)F)cc2-c2ccc(Cl)cc2)cc1 [SC-560],protective effect on roflumilast-mediated multifocal perivascular mononuclear infiltration in the mesentery,[1],only a very slight protective effect
same,protective effect on roflumilast-mediated proliferation of fibroblasts in the mesentery,[1],only a very slight protective effect
same,Mesentery: Proliferation of fibroblasts,[2],0/5
same,Mesentery: multifocal perivascular mononuclear infiltration (= inflammation parameter),[2],0/5

# Source: US9161927B2, “Drug combinations containing PDE4 inhibitors and NSAIDs” (Boehringer Ingelheim International GmbH, priority 2009, dated 2015)
